Patent publication US20110311508A1 (NORTHWESTERN UNIVERSITY, published 2011)
No constants are given. Whether binding was seen depends on the method and setting. Some binding calls cover weakened binding; strength is not graded here. Where a sequence is shown, tags or fusion partners need not be part of it.

Molecular target: T1, Myc-HSF1 (hHSF1-Myc, wild-type human HSF1 with a Myc tag) (human), Q00613
T1 chain: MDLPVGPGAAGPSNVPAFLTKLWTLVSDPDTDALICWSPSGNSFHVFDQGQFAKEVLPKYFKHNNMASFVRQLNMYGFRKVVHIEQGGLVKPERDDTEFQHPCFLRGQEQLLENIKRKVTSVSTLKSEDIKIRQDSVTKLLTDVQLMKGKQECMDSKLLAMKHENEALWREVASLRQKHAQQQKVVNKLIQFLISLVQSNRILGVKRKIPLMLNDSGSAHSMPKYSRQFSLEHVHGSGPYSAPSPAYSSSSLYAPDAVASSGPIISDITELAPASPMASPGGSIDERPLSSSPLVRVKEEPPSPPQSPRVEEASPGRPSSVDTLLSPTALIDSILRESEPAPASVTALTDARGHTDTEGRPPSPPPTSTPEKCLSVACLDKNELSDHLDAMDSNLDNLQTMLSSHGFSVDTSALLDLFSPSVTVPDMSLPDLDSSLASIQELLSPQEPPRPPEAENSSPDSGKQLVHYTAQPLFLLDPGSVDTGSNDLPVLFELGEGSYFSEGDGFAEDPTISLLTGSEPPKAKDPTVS
Experiment: self-association (trimerization); EGS crosslinking of K562 cell extracts, SDS-PAGE, western blot
Conditions: remark: other sources report otherwise

- binding: binds
B1: Myc-HSF1 (hHSF1-Myc, wild-type human HSF1 with a Myc tag), Q00613 1-529 (protein, not shown: small tags and cut ends)
chain: MDLPVGPGAAGPSNVPAFLTKLWTLVSDPDTDALICWSPSGNSFHVFDQGQFAKEVLPKYFKHNNMASFVRQLNMYGFRKVVHIEQGGLVKPERDDTEFQHPCFLRGQEQLLENIKRKVTSVSTLKSEDIKIRQDSVTKLLTDVQLMKGKQECMDSKLLAMKHENEALWREVASLRQKHAQQQKVVNKLIQFLISLVQSNRILGVKRKIPLMLNDSGSAHSMPKYSRQFSLEHVHGSGPYSAPSPAYSSSSLYAPDAVASSGPIISDITELAPASPMASPGGSIDERPLSSSPLVRVKEEPPSPPQSPRVEEASPGRPSSVDTLLSPTALIDSILRESEPAPASVTALTDARGHTDTEGRPPSPPPTSTPEKCLSVACLDKNELSDHLDAMDSNLDNLQTMLSSHGFSVDTSALLDLFSPSVTVPDMSLPDLDSSLASIQELLSPQEPPRPPEAENSSPDSGKQLVHYTAQPLFLLDPGSVDTGSNDLPVLFELGEGSYFSEGDGFAEDPTISLLTGSEPPKAKDPTVS
